Publication PMC9576935
Construct, isoform or probe ends are uncertain for at least one entry. Weaker means in comparison with the reference protein, sequence or condition of that experiment.

By UniProt entry, the sequences of proteins in these tests, tags left out. Where a name states a change or a piece, a line headed by the entry shows the natural chain unless it says otherwise.
UniProt P16220: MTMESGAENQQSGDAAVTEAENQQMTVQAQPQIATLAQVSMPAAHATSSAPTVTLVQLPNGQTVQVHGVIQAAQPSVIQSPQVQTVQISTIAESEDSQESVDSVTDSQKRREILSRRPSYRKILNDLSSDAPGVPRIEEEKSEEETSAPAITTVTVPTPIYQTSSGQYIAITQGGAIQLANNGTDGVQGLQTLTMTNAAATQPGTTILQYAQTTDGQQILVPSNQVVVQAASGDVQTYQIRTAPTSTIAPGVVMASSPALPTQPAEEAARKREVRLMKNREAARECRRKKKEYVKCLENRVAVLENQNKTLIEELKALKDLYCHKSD

Target: CREB1 (recombinant, Ni-affinity purified) (UniProt P16220)
Experiment: EMSA
Details: LightShift EMSA kit: 2 ul 5x binding buffer, 6 ul CREB1, 1 ul probe, 25 C, 20 min; salt and pH not stated; recombinant protein

Q: Does “TGGATGTCTTTCTCAGCATGAAATTAAA (double strand) [MITF-mut probe]” bind?
A: Result: binds more weakly
